Source: patent publication US9687551B2, “Compositions comprising lecithin oils and NSAIDs for protecting the gastrointestinal tract and providing enhanced therapeutic activity” (The Board of Regents of the University of Texas System, priority 2000, dated 2017)
Some results were stated once for a whole list of compounds, not compound by compound.

Tested on: antral COX activity
Assay: Antral COX activity in the pilot clinical study
Assay type: in vivo, human
Conditions: 650 mg t.i.d. oral, 4 days; FIG. 12

With `CC(=O)Oc1ccccc1C(=O)O` [aspirin] the “inhibition of antral COX activity” value was > 85%.
